# The list shows a part of the results.
# B1: SP15308F-bth-333-19-333 (Bacteroides thetaiotaomicron) (protein)
# chain: SCNNEWESEQYVQMVSFKAPVNAQGVTPIYIRYKPEGKVTYQLPLIVSGSTMNSKDLNVHVGLDLDTLDVLNVEHFGSRKELFFKPLENKYYEFPETVQIPAGECTSLLPIDFALKDLDQVDKWVLPLAIQSNDPSHNYQANPRKFYRRAMLRISPFNDYSGQYSATAYKVYFKGNEKEAIVPEYHTSYVIDDKTIFFYAGLIDIDRLDRKYYKIKFEFTEEKIDLQTRKLKISSDNEDINLVVKGQPSYTVEEEMDATRPYLKHIYVTINNLEYEFTDYTSVPGYPLEYVVKGSLTMERKINTQIPDEDQAIEW
# What was measured:
# Assay in all cases: glycan array binding signal (z-score within array); higher = stronger binding
# Conditions in all cases: glycan notation: IUPAC condensed, linker removed
# [1] = biological target: Fuc(a1-2)Gal(b1-4)[Fuc(a1-3)]GlcNAc(b1-2)Man(a1-3)[Fuc(a1-2)Gal(b1-4)[Fuc(a1-3)]GlcNAc(b1-2)Man(a1-6)]Man(b1-4)GlcNAc(b1-4)[Fuc(a1-6)]GlcNAc
# How it was run: (§1)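 The binding signal is a Z-score computed within each array. Data were drawn from 3228 arrays in the Consortium for Functional Glycomics database, restricted to those with a known protein sequence. Scores were averaged over arrays of the same protein sequence at different concentrations or buffers, and over linkers, and negative values can be taken as non-binding.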
# [2] = biological target: Fuc(a1-2)Gal(b1-4)[Fuc(a1-3)]GlcNAc(b1-2)[Fuc(a1-2)Gal(b1-4)[Fuc(a1-3)]GlcNAc(b1-4)]Man(a1-3)[Fuc(a1-2)Gal(b1-4)[Fuc(a1-3)]GlcNAc(b1-2)Man(a1-6)]Man(b1-4)GlcNAc(b1-4)GlcNAc
# How it was run: as §1
# [3] = biological target: Fuc(a1-2)Gal(b1-4)[Fuc(a1-3)]GlcNAc(b1-3)Gal(b1-4)[Fuc(a1-3)]GlcNAc
# How it was run: as §1
# [4] = biological target: Fuc(a1-2)Gal(b1-4)[Fuc(a1-3)]GlcNAc(b1-3)Gal(b1-4)[Fuc(a1-3)]GlcNAc(b1-3)Gal(b1-4)[Fuc(a1-3)]GlcNAc
# How it was run: as §1
# [5] = biological target: Fuc(a1-2)Gal(b1-4)[Fuc(a1-3)]GlcNAc(b1-3)GalNAc
# How it was run: as §1
# [6] = biological target: Fuc(a1-2)Gal(b1-4)[Fuc(a1-3)]GlcNAc(b1-3)[Neu5Ac(a2-6)Gal(b1-4)GlcNAc(b1-6)]Gal(b1-4)Glc
# How it was run: as §1
# [7] = biological target: Fuc(a1-2)Gal3S(b1-4)GlcNAc
# How it was run: as §1
# [8] = biological target: Fuc(a1-2)Gal6S(b1-3)GlcNAc
# How it was run: as §1
# [9] = biological target: Fuc(a1-2)Gal6S(b1-3)GlcNAc6S
# How it was run: as §1
# [10] = biological target: Fuc(a1-2)Gal6S(b1-4)Glc
# How it was run: as §1
# [11] = biological target: Fuc(a1-2)Gal6S(b1-4)Glc6S
# How it was run: as §1
# [12] = biological target: Fuc(a1-2)[Gal(a1-3)]Gal
# How it was run: as §1
# [13] = biological target: Fuc(a1-2)[Gal(a1-3)]Gal(b1-3)GalNAc
# How it was run: as §1
# [14] = biological target: Fuc(a1-2)[Gal(a1-3)]Gal(b1-3)GalNAc(b1-3)Gal(a1-4)Gal(b1-4)Glc
# How it was run: as §1
# [15] = biological target: Fuc(a1-2)[Gal(a1-3)]Gal(b1-3)GlcNAc
# How it was run: as §1
# [16] = biological target: Fuc(a1-2)[Gal(a1-3)]Gal(b1-3)GlcNAc(b1-2)Man(a1-3)[Fuc(a1-2)[Gal(a1-3)]Gal(b1-3)GlcNAc(b1-2)Man(a1-6)]Man(b1-4)GlcNAc(b1-4)GlcNAc
# How it was run: as §1
# [17] = biological target: Fuc(a1-2)[Gal(a1-3)]Gal(b1-3)GlcNAc(b1-2)Man(a1-3)[Fuc(a1-2)[Gal(a1-3)]Gal(b1-3)GlcNAc(b1-2)Man(a1-6)]Man(b1-4)GlcNAc(b1-4)[Fuc(a1-6)]GlcNAc
# How it was run: as §1
# [18] = biological target: Fuc(a1-2)[Gal(a1-3)]Gal(b1-3)GlcNAc(b1-3)GalNAc
# How it was run: as §1
# [19] = biological target: Fuc(a1-2)[Gal(a1-3)]Gal(b1-3)GlcNAc(b1-6)GalNAc
# How it was run: as §1
# [20] = biological target: Fuc(a1-2)[Gal(a1-3)]Gal(b1-4)Glc
# How it was run: as §1
# [21] = biological target: Fuc(a1-2)[Gal(a1-3)]Gal(b1-4)GlcNAc
# How it was run: as §1
# [22] = biological target: Fuc(a1-2)[Gal(a1-3)]Gal(b1-4)GlcNAc(b1-2)Man
# How it was run: as §1
# [23] = biological target: Fuc(a1-2)[Gal(a1-3)]Gal(b1-4)GlcNAc(b1-2)Man(a1-3)[Fuc(a1-2)[Gal(a1-3)]Gal(b1-4)GlcNAc(b1-2)Man(a1-6)]Man(b1-4)GlcNAc(b1-4)GlcNAc
# How it was run: as §1
# [24] = biological target: Fuc(a1-2)[Gal(a1-3)]Gal(b1-4)GlcNAc(b1-2)Man(a1-3)[Fuc(a1-2)[Gal(a1-3)]Gal(b1-4)GlcNAc(b1-2)Man(a1-6)]Man(b1-4)GlcNAc(b1-4)[Fuc(a1-6)]GlcNAc
# How it was run: as §1
# [25] = biological target: Fuc(a1-2)[Gal(a1-3)]Gal(b1-4)GlcNAc(b1-3)GalNAc
# How it was run: as §1
# [26] = biological target: Fuc(a1-2)[Gal(a1-3)]Gal(b1-4)GlcNAc(b1-3)[Fuc(a1-2)[Gal(a1-3)]Gal(b1-4)GlcNAc(b1-6)]GalNAc
# How it was run: as §1
# [27] = biological target: Fuc(a1-2)[Gal(a1-3)]Gal(b1-4)GlcNAc(b1-6)GalNAc
# How it was run: as §1
# [28] = biological target: Fuc(a1-2)[Gal(a1-3)]Gal(b1-4)[Fuc(a1-3)]Glc
# How it was run: as §1
# [29] = biological target: Fuc(a1-2)[Gal(a1-3)]Gal(b1-4)[Fuc(a1-3)]GlcNAc
# How it was run: as §1
# [30] = biological target: Fuc(a1-2)[Gal(a1-3)]Gal(b1-4)[Fuc(a1-3)]GlcNAc(b1-3)GalNAc
# How it was run: as §1
# [31] = biological target: Fuc(a1-2)[Gal(a1-4)]Gal(b1-4)GlcNAc
# How it was run: as §1
# [32] = biological target: Fuc(a1-2)[GalNAc(a1-3)]Gal
# How it was run: as §1
# [33] = biological target: Fuc(a1-2)[GalNAc(a1-3)]Gal(b1-3)GalNAc(a1-3)[Fuc(a1-2)]Gal(b1-4)GlcNAc
# How it was run: as §1
# [34] = biological target: Fuc(a1-2)[GalNAc(a1-3)]Gal(b1-3)GalNAc(b1-3)Gal(a1-4)Gal(b1-4)Glc
# How it was run: as §1
# [35] = biological target: Fuc(a1-2)[GalNAc(a1-3)]Gal(b1-3)GlcNAc
# How it was run: as §1
# [36] = biological target: Fuc(a1-2)[GalNAc(a1-3)]Gal(b1-3)GlcNAc(b1-2)Man(a1-3)[Fuc(a1-2)[GalNAc(a1-3)]Gal(b1-3)GlcNAc(b1-2)Man(a1-6)]Man(b1-4)GlcNAc(b1-4)GlcNAc
# How it was run: as §1
# [37] = biological target: Fuc(a1-2)[GalNAc(a1-3)]Gal(b1-3)GlcNAc(b1-2)Man(a1-3)[Fuc(a1-2)[GalNAc(a1-3)]Gal(b1-3)GlcNAc(b1-2)Man(a1-6)]Man(b1-4)GlcNAc(b1-4)[Fuc(a1-6)]GlcNAc
# How it was run: as §1
# [38] = biological target: Fuc(a1-2)[GalNAc(a1-3)]Gal(b1-3)GlcNAc(b1-3)GalNAc
# How it was run: as §1
binder,measurement,setting,value
B1,glycan array binding signal (z-score),[1],1.17
same,glycan array binding signal (z-score),[2],1.01
same,glycan array binding signal (z-score),[3],-1.32
same,glycan array binding signal (z-score),[4],1.93
same,glycan array binding signal (z-score),[5],0.625
same,glycan array binding signal (z-score),[6],0.582
same,glycan array binding signal (z-score),[7],0.542
same,glycan array binding signal (z-score),[8],-0.207
same,glycan array binding signal (z-score),[9],0.343
same,glycan array binding signal (z-score),[10],0.449
same,glycan array binding signal (z-score),[11],0.065
same,glycan array binding signal (z-score),[12],1.17
same,glycan array binding signal (z-score),[13],0.458
same,glycan array binding signal (z-score),[14],-0.184
same,glycan array binding signal (z-score),[15],-0.498
same,glycan array binding signal (z-score),[16],-1.19
same,glycan array binding signal (z-score),[17],0.961
same,glycan array binding signal (z-score),[18],-0.841
same,glycan array binding signal (z-score),[19],-0.634
same,glycan array binding signal (z-score),[20],-0.801
same,glycan array binding signal (z-score),[21],-1.2
same,glycan array binding signal (z-score),[22],-0.613
same,glycan array binding signal (z-score),[23],-0.477
same,glycan array binding signal (z-score),[24],-0.478
same,glycan array binding signal (z-score),[25],0.117
same,glycan array binding signal (z-score),[26],-0.031
same,glycan array binding signal (z-score),[27],-0.488
same,glycan array binding signal (z-score),[28],-0.455
same,glycan array binding signal (z-score),[29],0.155
same,glycan array binding signal (z-score),[30],-0.349
same,glycan array binding signal (z-score),[31],0.561
same,glycan array binding signal (z-score),[32],-0.209
same,glycan array binding signal (z-score),[33],-0.921
same,glycan array binding signal (z-score),[34],-0.107
same,glycan array binding signal (z-score),[35],-0.797
same,glycan array binding signal (z-score),[36],-1.44
same,glycan array binding signal (z-score),[37],-0.601
same,glycan array binding signal (z-score),[38],0.286

# 3 records drawn at random from the list so far:
binder,measurement,setting,value
B1,glycan array binding signal (z-score),[8],-0.207
same,glycan array binding signal (z-score),[28],-0.455
same,glycan array binding signal (z-score),[12],1.17
